Measurements reported in PubChem BioAssay AID445 (National Center for Advancing Translational Sciences (NCATS), 2006).
This is one part of the list. Further columns of the screen follow, without active or inactive calls. Most of these compounds were active or inconclusive in the main read-out, so they are no random draw. Potencies come from curve fits of mixed quality, noted in brackets.

assay: IkB Signaling; conditions: ABC-DLBCL IkBa-CBG/CBR dual luciferase ratio (green luciferase fused to IkBa over red control in OCI-Ly3 lymphoma cells), 4 h; measured here: control luc red channel unless noted
Procedure, shortened: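 Luminescence ratio of IκBα-fused green versus native red beetle luciferase in OCI-Ly3 cells, 4 h post-doxycycline with compound; red signal alone, scaled from basal (0%) to zero light (-100%), flagged nonspecific or cytotoxic effects.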

| Compound | AC50 |
| --- | --- |
| CCCCOc1cccc(C2c3c(-c4cc(C)ccc4O)n[nH]c3C(=O)N2CCOC)c1 (stereo not drawn) | 31.6 µM [falling, single point] |
| CCCN1C(C(=O)c2ccccc2)=C(OC(=O)COc2ccc(C)cc2)c2ccccc2S1(=O)=O | 12.6 µM [falling, partial curve] |
| Cc1ccc(NC(=O)C2CCCN(S(=O)(=O)c3cccs3)C2)c(C)c1 (stereo not drawn) | 10 µM [falling, partial curve] |
| COc1ccc(S(=O)(=O)N(CC(=O)Nc2ccc(Br)cc2)Cc2ccccc2)cc1 | 5.01 µM [rising, partial curve] |
| CCCCN(CCCC)C(=O)c1c[nH]c2ccc(S(=O)(=O)Nc3cccc(Cl)c3C)cc2c1=O | 10 µM [falling, partial curve] |
| CCN1CCN(C(=O)Cn2ncc3c4ccccc4n(Cc4c(C)cc(C)cc4C)c3c2=O)CC1 | 25.1 µM [falling, single point] |
| COc1cccc2cc(C(=O)Nc3ccc(C)cc3)c(=O)oc12 | 0.0794 µM [falling, full curve] |
| Cc1ccc2c(=O)cc(C(=O)Nc3sc4c(c3C(=O)NCc3cccnc3)CCCC4)oc2c1 | 39.8 µM [falling, single point] |
| O=C(NC1CCCCC1)c1noc2c1CCCCC2 | 3.98 µM [falling, partial curve] |
| O=C(CSc1ncnc2c1cnn2-c1ccccc1)Nc1ccc2c(c1)OCO2 | 3.98 µM [falling, full curve, poor fit] |
| Cc1ccc(CN(C(=O)COc2ccc(F)cc2)C2CCS(=O)(=O)C2)o1 (stereo not drawn) | 2.51 µM [falling, partial curve] |
| Cc1ccc(-n2ncc(C(=O)NCCN3CCC(Cc4ccccc4)CC3)c2C2CCN(C(=O)OC(C)(C)C)CC2)cc1 | 15.8 µM [falling, partial curve] |
| Cc1cc(NS(=O)(=O)c2ccc(NC(=O)COc3cc(C)c(Br)cc3C(C)C)cc2)no1 | 12.6 µM [falling, partial curve] |
| CCOC(=O)c1ccc(NC(=O)c2c(O)c3ccccc3n(C)c2=O)cc1 | 0.0794 µM [falling, full curve] |
| CCCCNC(=O)CSc1nc2cc3c(cc2c(=O)n1CCCC(=O)NCc1ccc(OC)cc1)OCO3 | 2 µM [rising, full curve, poor fit] |
| O=C1CN(C(=O)c2ccc(S(=O)(=O)N3CCCC3)cc2)C(c2ccc(F)cc2)c2cc(Br)ccc2N1 (stereo not drawn) | 39.8 µM [falling, single point] |
| CN1CCN(c2nc3cc(C(F)(F)F)ccc3n3cccc23)CC1 | 31.6 µM [falling, single point] |
| COC(=O)c1ccccc1NC(=O)NCc1ccc2c(c1)CCN2C(=O)c1ccccc1 | 25.1 µM [falling, partial curve, poor fit] |
| Cc1ccc2c(c1)N(C(=O)N1CCC(C(=O)Nc3cccc(F)c3)CC1)CCO2 | 20 µM [falling, partial curve, poor fit] |

Rewritten as labelled records: three of the compounds above
Cc1ccc(CN(C(=O)COc2ccc(F)cc2)C2CCS(=O)(=O)C2)o1 (stereo not drawn)
  AC50: 2.51 µM [falling, partial curve]
Cc1ccc(-n2ncc(C(=O)NCCN3CCC(Cc4ccccc4)CC3)c2C2CCN(C(=O)OC(C)(C)C)CC2)cc1
  AC50: 15.8 µM [falling, partial curve]
Cc1cc(NS(=O)(=O)c2ccc(NC(=O)COc3cc(C)c(Br)cc3C(C)C)cc2)no1
  AC50: 12.6 µM [falling, partial curve]

(next part)

| Compound | AC50 |
| --- | --- |
| COc1ccccc1Nc1cc(C(=O)NCCCN(C)C2CCCCC2)c2ccccc2n1 | 31.6 µM [falling, partial curve, poor fit] |
| Cc1ccc2c(c1)N(C(=O)CCC(=O)NCc1ccccc1F)CC(C)O2 (stereo not drawn) | 2 µM [rising, partial curve, poor fit] |
| CCOC(=O)c1ccc2c(c1)N(Cc1cc(C)ccc1C)C(=O)c1ccccc1S2(=O)=O | 7.94 µM [rising, single point] |
| Cc1cc(C)cc(NC(=O)[C@H]2O[C@@H]3OC(C)(C)O[C@@H]3[C@H]3OC(C)(C)O[C@H]32)c1 | 20 µM [falling, partial curve] |
| CCCCN(CC)C(=O)CSc1nc2c(sc3ccccc32)c(=O)n1CCc1ccccc1 | 39.8 µM [falling, single point] |
| CCOc1cccc(NC(=O)C2CC(=O)N(C)C(=Nc3ccccc3)S2)c1 (stereo not drawn) | 31.6 µM [falling, partial curve] |
| COC(=O)c1scc(-c2ccc(C)cc2)c1S(=O)(=O)N1CCN(c2cccc(Cl)c2)CC1 | 2 µM [falling, partial curve] |
| CC(=O)N1CCc2c(sc3c2c(=O)n(-c2ccccc2C)c(=O)n3CC(=O)Nc2ccccc2)C1 | 0.2 µM [falling, full curve] |
| Cn1c(=O)sc2cc(NS(=O)(=O)c3ccc(C(C)(C)C)cc3)ccc21 | 0.00501 µM [falling, full curve, poor fit] |
| Cc1ccc(S(=O)(=O)c2nc(-c3cccs3)oc2N2CCC(C)CC2)cc1 | 39.8 µM [falling, single point] |
| COc1ccc(C(=O)NCc2cn3ccc(C)cc3n2)cc1 | 0.2 µM [rising, full curve, poor fit] |
| Cc1c(C(=O)Nc2c(F)cccc2F)sc2ncn(Cc3ccccc3F)c(=O)c12 | 10 µM [falling, partial curve] |
| N#Cc1cccc(-n2nnnc2-c2ccccn2)c1 | 12.6 µM [rising, partial curve] |
| COc1cc2c(cc1OC)C(COc1cc(C)cc(C)c1)N(C(=O)C(C)(C)C)CC2 (stereo not drawn) | 39.8 µM [falling, single point] |
| CCC(Nc1ccc(-c2nc(-c3ccccn3)no2)cc1[N+](=O)[O-])c1ccccc1 (stereo not drawn) | 15.8 µM [falling, partial curve] |
| Cc1cccc(N2CCn3c2nc2c3c(=O)n(CCCc3ccccc3)c(=O)n2C)c1 | 12.6 µM [falling, partial curve] |
| O=C(CCCCCn1c(=O)c2sccc2n(CC(=O)Nc2ccccc2F)c1=O)NCc1ccc2c(c1)OCO2 | 6.31 µM [falling, partial curve, poor fit] |
| CC(C)Cc1ccc(S(=O)(=O)N2CCN(C(=O)c3ccco3)CC2)cc1 | 7.94 µM [falling, full curve, poor fit] |
| COC(=O)c1ccc(N2C(=O)CC(Sc3n[nH]c(C)n3)C2=O)cc1 (stereo not drawn) | 20 µM [falling, partial curve] |
